Measured values reported in the supplement of paper PMC10338343.
± gives the standard deviation. The list shows a part of the results, in another mix than the full data. The uncertainty is large for many entries.

Columns and labels:
[1] = system: MILI (PIWIL2) piRISC loaded with piRNA #1 (26 nt); assay: pre-steady-state target cleavage rate (min^-1); MIWI and MILI are mouse PIWI proteins and EfPiwi is from a freshwater sponge; tags in brackets are library labels; higher = faster piRNA-guided slicing of the target; details: guide: piRNA #1 5'p-UGAGGUAGUAGGUUGUAUAGUAUCCA; auxiliary factor: 500 nM mouse GTSF1
How it was run: (§1)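 A burst-and-steady-state fit was used to obtain the pre-steady-state cleavage rate. The input data were sequencing reads of uncleaved targets, normalised to depth and to weakly complementary targets, from a […] transcribed, DNA-blocked target RNA library mixed with 1 nM active affinity-purified piRISC holding one synthetic guide, with or without 500 nM GTSF1 partner protein, in HEPES–potassium acetate buffer at 33 °C for 0–8 or 0–960 min. Three trials were pooled and k3 was capped at 0.0001 min^-1.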

[2] = system: MIWI (PIWIL1) piRISC loaded with piRNA #1 (30 nt); assay: as above; details: guide: piRNA #1 5'p-UGAGGUAGUAGGUUGUAUAGUAUCCAGAGG; auxiliary factor: 500 nM mouse GTSF1
How it was run: as §1
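Further: 1 nM active piRISC with 0.1 nM target library at 33 °C single turnover.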

GGAGACCUAUGAUAUCAACCGACUACCUCA
pre-steady-state target cleavage rate [1]: 0.00134 ± 0.0052 | pre-steady-state target cleavage rate [2]: 0.000541 ± 0.0059

GGAGACCAUACUAUACAACCUACUACUUCA
pre-steady-state target cleavage rate [1]: 0.189 ± 0.019 | pre-steady-state target cleavage rate [2]: 2.14 ± 0.14

GGAGACCUAUGAUAUGUUGGUACUACGUCA
pre-steady-state target cleavage rate [1]: 0.0001 ± 0.035 | pre-steady-state target cleavage rate [2]: 0.000131 ± 0.026

GGAGACCUAUGAUAACACCCUACUACCUCA
pre-steady-state target cleavage rate [1]: 0.00217 ± 0.0037 | pre-steady-state target cleavage rate [2]: 0.00232 ± 0.0037

GGAGACCUAUGAUAUGUUGGUACUACCGCA
pre-steady-state target cleavage rate [1]: 0.000341 ± 0.019 | pre-steady-state target cleavage rate [2]: 0.0003 ± 0.023

GGAGACCUAUGAAUCAACCUACUACCUCA
pre-steady-state target cleavage rate [1]: 0.0017 ± 0.0036 | pre-steady-state target cleavage rate [2]: 0.000788 ± 0.0055

GGAGACCUAUGAUAUCAACCUAACUACCUCA
pre-steady-state target cleavage rate [1]: 0.00218 ± 0.0032 | pre-steady-state target cleavage rate [2]: 0.000458 ± 0.0047

GGAGACCUAUGAAAACAACCUUCUACCUCA
pre-steady-state target cleavage rate [1]: 0.00204 ± 0.0033 | pre-steady-state target cleavage rate [2]: 0.0012 ± 0.0043

GGAGACCUAUGAUAUCAACCUAGUACCUCA
pre-steady-state target cleavage rate [1]: 0.000943 ± 0.0044 | pre-steady-state target cleavage rate [2]: 0.000303 ± 0.0061

GGAGACCUAUGAUAUGUUGCGUACUACCUCA
pre-steady-state target cleavage rate [1]: 0.000455 ± 0.012 | pre-steady-state target cleavage rate [2]: 0.000969 ± 0.0047

GGAGACCUAUGAUAUCAACCUACUACACUCA
pre-steady-state target cleavage rate [1]: 0.00216 ± 0.0036 | pre-steady-state target cleavage rate [2]: 0.000964 ± 0.0058

GGAGUGGAUACUAUACACACCUACUACCUCA
pre-steady-state target cleavage rate [1]: 0.00125 ± 0.0053 | pre-steady-state target cleavage rate [2]: 0.000341 ± 0.019

GGAGACCUAUGUAAAGAACCUACUACCUCA
pre-steady-state target cleavage rate [1]: 0.00135 ± 0.0036 | pre-steady-state target cleavage rate [2]: 0.000227 ± 0.0089

GGAGACCUAACUAUACAACCUUACUACCUCA
pre-steady-state target cleavage rate [1]: 0.00148 ± 0.011 | pre-steady-state target cleavage rate [2]: 0.00025 ± 0.02

GGAGACCUAUGAAUACUACCUACUACCUGA
pre-steady-state target cleavage rate [1]: 0.00114 ± 0.0053 | pre-steady-state target cleavage rate [2]: 0.000153 ± 0.012

GGAGUGGAUACUAUACUAACCUACUACCUCA
pre-steady-state target cleavage rate [1]: 0.00162 ± 0.0047 | pre-steady-state target cleavage rate [2]: 0.00042 ± 0.019

GGAGACCUAUCUAUUGUACCUACUACCUCA
pre-steady-state target cleavage rate [1]: 0.00242 ± 0.0032 | pre-steady-state target cleavage rate [2]: 0.000531 ± 0.015

GGAGAGGAUACUAUACAACCUAGUACCUGA
pre-steady-state target cleavage rate [1]: 0.000865 ± 0.0057 | pre-steady-state target cleavage rate [2]: 0.00274 ± 0.0029

GGAGACCUAUGAUAACAACCGUACUACCUCA
pre-steady-state target cleavage rate [1]: 0.00235 ± 0.0036 | pre-steady-state target cleavage rate [2]: 0.000712 ± 0.007

GGAGACCUAUGAAUAUCAACCUACUACCUCA
pre-steady-state target cleavage rate [1]: 0.00209 ± 0.0026 | pre-steady-state target cleavage rate [2]: 0.000212 ± 0.015

GGAGACCUAUGAUAUCAACCAAGUACCUCA
pre-steady-state target cleavage rate [1]: 0.000469 ± 0.0069 | pre-steady-state target cleavage rate [2]: 0.000505 ± 0.0042

GGAGACCUAUCUAUACAGACCUACUACCUCA
pre-steady-state target cleavage rate [1]: 0.000874 ± 0.0077 | pre-steady-state target cleavage rate [2]: 0.000684 ± 0.0085

GGAGACCUAUGUAUACAACCUAGAACCUCA
pre-steady-state target cleavage rate [1]: 0.000881 ± 0.0052 | pre-steady-state target cleavage rate [2]: 0.000377 ± 0.0093

GGAGACCUAUGAUAUCAACUUACUACCUCA
pre-steady-state target cleavage rate [1]: 0.00319 ± 0.0027 | pre-steady-state target cleavage rate [2]: 0.000336 ± 0.011

GGAGACCUAUGAUAUGUUGGUAGUACCACA
pre-steady-state target cleavage rate [1]: 0.000412 ± 0.017 | pre-steady-state target cleavage rate [2]: 0.000661 ± 0.012

GGAGACCUAUGAUAUGUACCAACUUCCUCA
pre-steady-state target cleavage rate [1]: 0.000147 ± 0.015 | pre-steady-state target cleavage rate [2]: 0.000153 ± 0.0092

GGAGACCUAUGAUUACAACCUACUACCCA
pre-steady-state target cleavage rate [1]: 0.00105 ± 0.0065 | pre-steady-state target cleavage rate [2]: 0.000526 ± 0.0092

GGAGACCAUACUAUACAACCUGACUACCUCA
pre-steady-state target cleavage rate [1]: 0.00143 ± 0.0054 | pre-steady-state target cleavage rate [2]: 0.0021 ± 0.0022

GGAGACCUUACUAUACAAGGAACUACCUCA
pre-steady-state target cleavage rate [1]: 0.0034 ± 0.0034 | pre-steady-state target cleavage rate [2]: 0.0034 ± 0.0039

GGAGACCUUACUAUACAACCUUACUACCUCA
pre-steady-state target cleavage rate [1]: 0.00127 ± 0.0051 | pre-steady-state target cleavage rate [2]: 0.00126 ± 0.0039

GGAGAGGAUACUAUACAACCUAGUAGCUCA
pre-steady-state target cleavage rate [1]: 0.000691 ± 0.0084 | pre-steady-state target cleavage rate [2]: 0.00102 ± 0.0049

GGAGACCUAUGAUAUCAACCUACUUGCUCA
pre-steady-state target cleavage rate [1]: 0.00113 ± 0.0046 | pre-steady-state target cleavage rate [2]: 0.000103 ± 0.02

GGAGACCUAUGAAUACAACCAACUUCCUCA
pre-steady-state target cleavage rate [1]: 0.00215 ± 0.004 | pre-steady-state target cleavage rate [2]: 0.000974 ± 0.0072

GGAGACCUAUGAUUACAACCUACUACCAUCA
pre-steady-state target cleavage rate [1]: 0.00378 ± 0.0028 | pre-steady-state target cleavage rate [2]: 0.000482 ± 0.0069

GGAGACCUAUGAUUUCAACCUACUUCCUCA
pre-steady-state target cleavage rate [1]: 0.00132 ± 0.0043 | pre-steady-state target cleavage rate [2]: 0.000151 ± 0.015

GGAGACCUAUGAUAACAACGUACUACCUGA
pre-steady-state target cleavage rate [1]: 0.00117 ± 0.0053 | pre-steady-state target cleavage rate [2]: 0.000215 ± 0.008

GGAGACCUAUGAUUACAUCCUUCUACCUCA
pre-steady-state target cleavage rate [1]: 0.00314 ± 0.0026 | pre-steady-state target cleavage rate [2]: 0.00151 ± 0.003

GGAGACCUAUGAUAUCAGACCUACUACCUCA
pre-steady-state target cleavage rate [1]: 0.000239 ± 0.012 | pre-steady-state target cleavage rate [2]: 0.00012 ± 0.025

GGAGACCUAUGAUAUCAAUCCUACUACCUCA
pre-steady-state target cleavage rate [1]: 0.000172 ± 0.018 | pre-steady-state target cleavage rate [2]: 0.000116 ± 0.016

GGAGACCUAUGAUUACUUCCUACUACCUCA
pre-steady-state target cleavage rate [1]: 0.00257 ± 0.0031 | pre-steady-state target cleavage rate [2]: 0.000989 ± 0.0053

GGAGUGGAUACUAUACAACCUACUAGGACA
pre-steady-state target cleavage rate [1]: 0.000453 ± 0.0073 | pre-steady-state target cleavage rate [2]: 0.000551 ± 0.0082

GGAGUGGAUACUAUACAACCAUACUACCUCA
pre-steady-state target cleavage rate [1]: 0.00751 ± 0.003 | pre-steady-state target cleavage rate [2]: 0.00221 ± 0.0045

GGAGACCUAUGAUAUCUACCUACUACCACA
pre-steady-state target cleavage rate [1]: 0.000263 ± 0.021 | pre-steady-state target cleavage rate [2]: 0.000102 ± 0.021

GGAGACCUAUGAUAUCAAGGUACUACCUCA
pre-steady-state target cleavage rate [1]: 0.000452 ± 0.011 | pre-steady-state target cleavage rate [2]: 0.000185 ± 0.012

GGAGACCUAUGAUAUGUUCGUACUUCCUCA
pre-steady-state target cleavage rate [1]: 0.000222 ± 0.026 | pre-steady-state target cleavage rate [2]: 0.000261 ± 0.027

GGAGACCUAUGAUUACAACGCUACUACCUCA
pre-steady-state target cleavage rate [1]: 0.000309 ± 0.011 | pre-steady-state target cleavage rate [2]: 0.00025 ± 0.011

GGAGACCUAACUUUACAACCAACUACCUCA
pre-steady-state target cleavage rate [1]: 0.00215 ± 0.0081 | pre-steady-state target cleavage rate [2]: 0.000363 ± 0.018

GGAGACCUAUGAUAUGUUCCUACUACAUCA
pre-steady-state target cleavage rate [1]: 0.000269 ± 0.016 | pre-steady-state target cleavage rate [2]: 0.00044 ± 0.0095

GGAGACCUAUGAUAUGUACCUACUACAUCA
pre-steady-state target cleavage rate [1]: 0.000441 ± 0.013 | pre-steady-state target cleavage rate [2]: 0.000541 ± 0.0084

GGAGACCUAUGAUAACGACCUACUACCUCA
pre-steady-state target cleavage rate [1]: 0.00253 ± 0.0035 | pre-steady-state target cleavage rate [2]: 0.000198 ± 0.0087

GGAGACCUAUGUUUACAACCAACUACCUCA
pre-steady-state target cleavage rate [1]: 0.00317 ± 0.0034 | pre-steady-state target cleavage rate [2]: 0.00085 ± 0.0052

GGAGACCUAUGAAUACAACCUCUACCUCA
pre-steady-state target cleavage rate [1]: 0.000537 ± 0.012 | pre-steady-state target cleavage rate [2]: 0.000543 ± 0.0067

GGAGACCUAUGAUAUCAACCUACUACCUCG [g2:g15:cont:t1G]
pre-steady-state target cleavage rate [1]: 0.00273 ± 0.0036 | pre-steady-state target cleavage rate [2]: 0.000901 ± 0.0064

GGAGACCUAUGAAUACAACUACUACCUCA
pre-steady-state target cleavage rate [1]: 0.000843 ± 0.0057 | pre-steady-state target cleavage rate [2]: 0.000201 ± 0.011

GGAGACCUAUGAUAUCAUCCUACUUCCUCA
pre-steady-state target cleavage rate [1]: 0.00192 ± 0.0036 | pre-steady-state target cleavage rate [2]: 0.000518 ± 0.0071

GGAGACCUAUGAAUACAUCCAACUACCUCA
pre-steady-state target cleavage rate [1]: 0.00224 ± 0.0032 | pre-steady-state target cleavage rate [2]: 0.000197 ± 0.013

GGAGACCUAUGUAUACAACGAUCUACCUCA
pre-steady-state target cleavage rate [1]: 0.000789 ± 0.007 | pre-steady-state target cleavage rate [2]: 0.000147 ± 0.014

GGAGACCUAUGAUAACAACCUUCUUCCUCA
pre-steady-state target cleavage rate [1]: 0.00072 ± 0.0057 | pre-steady-state target cleavage rate [2]: 0.000174 ± 0.012

GGAGACCUAUGAUAUGUAGCUAGUACCUCA
pre-steady-state target cleavage rate [1]: 0.000126 ± 0.02 | pre-steady-state target cleavage rate [2]: 0.000322 ± 0.011

GGAGACCUUACUAUACCAACCUACUACCUCA
pre-steady-state target cleavage rate [1]: 0.00685 ± 0.0036 | pre-steady-state target cleavage rate [2]: 0.00216 ± 0.003
